PubChem BioAssay AID504804 | Drosophila RNAi Screening Center | 2011
Assay: 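Fly genes whose loss lessens doxorubicin-driven cell death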 (primary screen). System: Drosophila Kc cells. Knock-down reagent: long dsRNA against Drosophila genes, 0.5 µg dsRNA per well. Duration: 96 h (48 h knock-down, then 48 h drug). Conditions: doxorubicin 5 µg/ml for 48 h, added 48 h after dsRNA. Measurement: 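Luminescent ATP counts per replicate, not normalised, reflecting viable cells after 48 h dsRNA knock-down followed by 48 h of 5 µg/ml doxorubicin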. Reading the numbers: raw ATP luminescence: higher = more viable cells, protection from doxorubicin. Call rule: 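Active when both duplicate wells lie at least 2 SD above the plate mean and protection is confirmed by rescreening and independent dsRNAs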.
The screen tested about 19,000 reagents; this is an unselected part of those that have a named target and a result. Of all reagents, 47 (0.25%) are marked active. 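Signals are raw, not normalised; exact z-scores behind calls not deposited; actives needed confirmation, so some wells reaching 2 SD are inactive.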 Entries without a mark were called inactive. The numbers tell different reagents against one gene apart. No sequences are given here.

no.	Target gene	reagent no.	SD above plate mean	raw ATP luminescence, replicate 1	raw ATP luminescence, replicate 2
1	CG5070	1		3.70e5	3.33e5
2	CG5347	1		4.16e5	3.60e5
3	DNaseII	1		39257	43930
4	Tomosyn	1		3.38e5	3.54e5
5	Tomosyn	2		4.31e5	4.52e5
6	Rbfox1	1		1.78e5	2.13e5
7	Rbfox1	2		64503	53580
8	Rbfox1	3		61427	54697
9	CG31229	1		1.42e5	1.35e5
10	Akt	1		40877	48467
11	CG13850	1		40910	39330
12	mib2	1		86510	57327
13	CG34451	1		60087	75963
14	CG34451	2		78050	86553
15	CG4301	1		3.41e5	3.55e5
16	CG3348	1		51980	42190
17	PIG-U	1		91460	1.06e5
18	Vps16A	1		24890	66590
19	dsx	1		65180	72427
20	dsx	2		51487	58907
21	lbk	1		50507	69213
22	CG7239	1		39003	22533
23	CG32333	1		64710	80353
24	CG34166	1		1.88e5	2.20e5
25	ninaG	1		57103	57703
26	RpL23A	1		33933	63257
27	FAM21	1		54570	57060
28	Ddx56	1		2.99e5	2.94e5
29	RtGEF	1		67437	76663
30	spab	1		44560	68963
31	Acsx3	1		44897	49037
32	Dus3	1		56457	54817
33	CG1983	1		44140	45060
34	Rpn12R	1		61063	57967
35	nes	1		60280	62480
36	Kul	1		61140	45030
37	sPLA2	1		45083	67727
38	Tmtc3	1	at least 2 SD above plate mean	95133	88617
39	CG32259	1		1.86e5	1.26e5
40	CG10274	1		39017	38667
41	c12.1	1		3.50e5	2.84e5
42	Nepl4	1		1.07e5	73273
43	Rpn13R	1		42710	35810
44	CG15375	1		25310	44510
45	Prosbeta5	1		31773	59767
46	obst-H	1		82920	49460
47	obst-H	2		63567	41167
48	Usp2	1		2.18e5	2.05e5
49	Usp2	2		2.75e5	2.92e5
50	HP6	1		24787	27637
51	gt	1		16610	17280
52	Dhc36C	1		83157	74723
53	ed	1		76500	72920
54	ed	2		22107	28733
55	ed	3		26967	30120
56	ed	4		22700	23863
57	CG31365	1		50807	37017

Already shown: 8 of the entries above.
no.	Target gene	reagent no.	SD above plate mean	raw ATP luminescence, replicate 1	raw ATP luminescence, replicate 2
45	Prosbeta5	1		31773	59767
46	obst-H	1		82920	49460
47	obst-H	2		63567	41167
48	Usp2	1		2.18e5	2.05e5
49	Usp2	2		2.75e5	2.92e5
50	HP6	1		24787	27637
51	gt	1		16610	17280
52	Dhc36C	1		83157	74723
